Reference: US20240010747A1, “ANTI-MRP4 (ENCODED BY ABCC4 GENE) ANTIBODIES AND USES THEREOF” (Kenjockety Biotechnology, Inc., priority 2020, published 2024)
Residue numbers refer to the chain shown, from its start. No constants are given. Whether binding was seen depends on the method and setting. Some results given as binding are weak or reduced against the parent protein; the word gives no strength.

T1: human ABCC4 (human, UniProt O15439 1-1325)
T1 construct: Expressed on murine C6 cells stably transfected with human ABCC4 cDNA with C-terminal FLAG tag; also called MRP4; Multidrug resistance protein 4; not shown: C-terminal fused FLAG tag
T1 sequence: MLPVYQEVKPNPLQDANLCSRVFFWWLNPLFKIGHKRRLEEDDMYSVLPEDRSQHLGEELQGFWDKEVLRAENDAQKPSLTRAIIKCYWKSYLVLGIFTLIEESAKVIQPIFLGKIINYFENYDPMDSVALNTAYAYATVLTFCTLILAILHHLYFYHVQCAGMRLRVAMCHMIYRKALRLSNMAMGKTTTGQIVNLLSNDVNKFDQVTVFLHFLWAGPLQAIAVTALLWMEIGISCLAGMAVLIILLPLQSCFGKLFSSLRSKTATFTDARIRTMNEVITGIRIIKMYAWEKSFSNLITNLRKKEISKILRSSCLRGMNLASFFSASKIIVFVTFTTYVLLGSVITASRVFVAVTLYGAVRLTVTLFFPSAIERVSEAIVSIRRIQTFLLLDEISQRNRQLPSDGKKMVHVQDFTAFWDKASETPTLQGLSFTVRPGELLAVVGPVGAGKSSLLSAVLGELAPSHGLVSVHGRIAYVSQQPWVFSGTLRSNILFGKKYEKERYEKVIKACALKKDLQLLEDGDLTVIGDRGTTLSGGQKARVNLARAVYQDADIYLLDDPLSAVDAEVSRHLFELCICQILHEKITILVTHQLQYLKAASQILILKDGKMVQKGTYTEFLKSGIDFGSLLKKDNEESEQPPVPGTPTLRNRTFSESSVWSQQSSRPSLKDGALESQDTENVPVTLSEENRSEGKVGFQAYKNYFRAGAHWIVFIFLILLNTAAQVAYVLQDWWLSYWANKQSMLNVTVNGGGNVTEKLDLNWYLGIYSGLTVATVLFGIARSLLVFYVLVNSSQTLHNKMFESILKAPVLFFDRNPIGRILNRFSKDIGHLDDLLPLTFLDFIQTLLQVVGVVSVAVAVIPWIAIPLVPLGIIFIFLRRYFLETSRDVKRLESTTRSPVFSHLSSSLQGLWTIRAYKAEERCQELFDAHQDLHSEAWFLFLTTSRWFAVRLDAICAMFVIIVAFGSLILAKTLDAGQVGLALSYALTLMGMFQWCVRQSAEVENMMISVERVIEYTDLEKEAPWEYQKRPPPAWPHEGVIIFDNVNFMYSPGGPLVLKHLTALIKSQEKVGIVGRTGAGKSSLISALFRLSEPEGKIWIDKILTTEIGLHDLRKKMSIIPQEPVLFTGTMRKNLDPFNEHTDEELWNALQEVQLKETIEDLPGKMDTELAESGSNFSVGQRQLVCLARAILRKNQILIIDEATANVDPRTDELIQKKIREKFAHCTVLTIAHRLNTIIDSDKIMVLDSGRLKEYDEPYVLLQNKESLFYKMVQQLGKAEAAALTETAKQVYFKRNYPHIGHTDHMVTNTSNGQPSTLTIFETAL

B1: C4.1143 (antibody, V domains shown)
VH: EVQLVESDGGLLQPGRSLKLSCAASGFTFSDFYMAWVRQAPTKGLEWIATISHDGRNTYYRDSVKGRFTISRDNAKRTLYLEMDSLRSEDTATYYCATLTTRYKGVMEAWGQGASVTVSS
VL: DVVMTQSPSHLAASPGESVSINCKASKNIYKYLAWYQQKPGKTNKLLIYSGSTLQSGTPSRFSGSGSGSDFTLTIRNLEPEDFGLYYCQHHNEYPPTFGGGTKLEIK
B2: C4.1134 (antibody, V domains shown)
VH: B1 VH with L12V, Y59F, T78A, E82Q, T98S
VL: B1 VL
B3: C4.1131 (antibody, V domains shown)
VH: EVKLVESDGGLVQPRKSLKLSCAASGFTFTDYYMAWVRQGPTMGLEWVATISNDGSTKYYRDSVKGRFTLSRDNAKTTLHLQMDSLRSEDTATYYCARLTIRYKGVMDAWGQGASVTVSS
VL: B1 VL
B4: C4.1152 (antibody, V domains shown)
VH: B1 VH with Q3K, L12V, T50S, E82Q, T98S, T101A, E108G, A114T, S115L
VL: B1 VL
B5: C4.1054 (antibody, V domains shown)
VH: QVQLLQSGAALVKPGASVKMSCKPSGYTFTDYWVSWVKQSHGKSLEWIGEIYPNNGATNFNEKFKGKATLTVDKSTSTAYMELSRLTSEDSAIYYCPSRKYGYNWNFDYWGQGTMVTVSS
VL: DIVLTQSPALAVSLGQRATISCRARQSVSISRYNLMHWYQQKPGQQPKVLIYRASNLASGIPARFSGSGSGTDFTLTIDPVQADDIATYYCQQSRDSPWTFGGGTKLELK

Target: T1, human ABCC4
Experiment: FACS, C6 cells stably expressing human ABCC4

binding	Binder
binds	B1

Target: cynomolgus ABCC4 (cynomolgus)
Experiment: FACS, C6 cells stably expressing cynomolgus ABCC4

binding	Binder
binds	B2
binds	B3
binds	B1
binds	B4
binds	B5

Target: T1, human ABCC4
Experiment: FACS, C6 cells stably expressing human ABCC4; + = MFI>3x background
Method: Antibody binding to cells was evaluated by flow cytometry. Murine C6 cells stably transfected to express human or cynomolgus ABCC4 were washed once in flow cytometry buffer (PBS+2% FBS+0.02% sodium azide), resuspended at 2×10\hat{ }6 cells/mL in flow cytometry buffer, and dispensed into 96-well microtiter plates at 0.1 mL/well. Recombinant antibodies were added to cells at 5 ug/mL for initial binding confirmation, or serially diluted from 100 ug/mL in flow cytometry buffer. After incubating cells on ice for 30 min, cells were washed twice with flow cytometry buffer. Bound antibody was detected with PE-labeled F(ab′)₂ fragment goat anti-human IgG (Jackson ImmunoResearch) and evaluated on an Attune N×T flow cytometer. EC50 is calculated to be the concentration of antibody that gives half maximal response.

binding	Binder
binds	B1

Target: cynomolgus ABCC4 (cynomolgus)
Experiment: FACS, different C6.cC4 cell line expressing cynomolgus ABCC4; + = MFI>3x background

binding	Binder
binds	B2
binds	B3
binds	B1
binds	B4
binds	B5
